In article PMC5797151:
No constants are given. Whether binding was seen depends on the method and setting. Binding seen in cells or lysates may run through a third protein. Some binding calls cover weakened binding; strength is not graded here. For part of these data: Sequences can lack the tags named with a protein.

The chains behind the UniProt entries cited, without tags or fusion partners. Residues count along the entry.
UniProt P22888, residues 27-699: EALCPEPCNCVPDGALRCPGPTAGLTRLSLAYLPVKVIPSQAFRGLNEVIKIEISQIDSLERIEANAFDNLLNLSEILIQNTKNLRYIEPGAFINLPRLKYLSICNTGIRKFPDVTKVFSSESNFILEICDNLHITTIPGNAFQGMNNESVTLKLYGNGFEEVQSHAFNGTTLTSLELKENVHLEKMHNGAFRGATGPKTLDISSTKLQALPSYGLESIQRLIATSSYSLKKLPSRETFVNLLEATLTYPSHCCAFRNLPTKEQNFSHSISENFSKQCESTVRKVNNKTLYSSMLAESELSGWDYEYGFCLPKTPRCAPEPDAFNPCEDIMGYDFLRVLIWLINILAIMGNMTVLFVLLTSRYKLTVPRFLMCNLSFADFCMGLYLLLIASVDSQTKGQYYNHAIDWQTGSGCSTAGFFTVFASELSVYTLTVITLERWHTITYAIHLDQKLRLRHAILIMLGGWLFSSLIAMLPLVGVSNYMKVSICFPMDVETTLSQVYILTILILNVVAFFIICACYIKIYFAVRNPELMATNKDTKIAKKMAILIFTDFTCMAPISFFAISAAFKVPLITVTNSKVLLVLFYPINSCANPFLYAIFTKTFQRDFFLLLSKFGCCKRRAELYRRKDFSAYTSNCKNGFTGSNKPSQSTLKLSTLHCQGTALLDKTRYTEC
UniProt P50148: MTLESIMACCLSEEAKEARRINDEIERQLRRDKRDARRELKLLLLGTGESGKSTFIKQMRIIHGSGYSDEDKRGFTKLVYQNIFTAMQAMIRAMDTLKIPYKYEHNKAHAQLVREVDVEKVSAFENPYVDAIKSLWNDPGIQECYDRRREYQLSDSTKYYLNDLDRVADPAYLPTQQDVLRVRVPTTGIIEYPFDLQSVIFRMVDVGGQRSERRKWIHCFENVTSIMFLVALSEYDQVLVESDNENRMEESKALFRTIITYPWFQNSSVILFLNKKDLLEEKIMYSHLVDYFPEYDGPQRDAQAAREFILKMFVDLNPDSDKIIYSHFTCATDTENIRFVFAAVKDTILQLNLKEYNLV
UniProt P63092: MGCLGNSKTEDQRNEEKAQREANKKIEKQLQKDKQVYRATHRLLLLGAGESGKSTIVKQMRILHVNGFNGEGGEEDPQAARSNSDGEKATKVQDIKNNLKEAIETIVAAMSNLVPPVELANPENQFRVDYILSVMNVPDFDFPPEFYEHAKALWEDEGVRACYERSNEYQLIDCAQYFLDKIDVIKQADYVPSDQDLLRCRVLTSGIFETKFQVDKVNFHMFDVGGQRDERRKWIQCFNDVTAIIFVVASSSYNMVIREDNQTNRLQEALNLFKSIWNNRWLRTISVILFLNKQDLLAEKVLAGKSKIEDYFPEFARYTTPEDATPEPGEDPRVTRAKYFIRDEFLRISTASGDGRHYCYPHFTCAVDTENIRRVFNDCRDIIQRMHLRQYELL

B1: FSHR, BRET-tagged, as used for receptor-receptor BRET (Supplementary Fig. S5) (receptor, UniProt P23945 18-695)
chain: CHHRICHCSNRVFLCQESKVTEIPSDLPRNAIELRFVLTKLRVIQKGAFSGFGDLEKIEISQNDVLEVIEADVFSNLPKLHEIRIEKANNLLYINPEAFQNLPNLQYLLISNTGIKHLPDVHKIHSLQKVLLDIQDNINIHTIERNSFVGLSFESVILWLNKNGIQEIHNCAFNGTQLDELNLSDNNNLEELPNDVFHGASGPVILDISRTRIHSLPSYGLENLKKLRARSTYNLKKLPTLEKLVALMEASLTYPSHCCAFANWRRQISELHPICNKSILRQEVDYMTQARGQRSSLAEDNESSYSRGFDMTYTEFDYDLCNEVVDVTCSPKPDAFNPCEDIMGYNILRVLIWFISILAITGNIIVLVILTTSQYKLTVPRFLMCNLAFADLCIGIYLLLIASVDIHTKSQYHNYAIDWQTGAGCDAAGFFTVFASELSVYTLTAITLERWHTITHAMQLDCKVQLRHAASVMVMGWIFAFAAALFPIFGISSYMKVSICLPMDIDSPLSQLYVMSLLVLNVLAFVVICGCYIHIYLTVRNPNIVSSSSDTRIAKRMAMLIFTDFLCMAPISFFAISASLKVPLITVSKAKILLVLFHPINSCANPFLYAIFTKNFRRDFFILLSKCGCYEMQAQIYRTETSSTVHNTHPRNGHCSSAPRVTSGSTYILVPLSHLAQN

Tests used:
[1] = target: LHR-Rluc8 (luteinising hormone receptor, C-terminally tagged with Renilla luciferase 8) (human) (UniProt P22888); test: FRET or BRET; ligand-induced BRET between LHR-Rluc8 (donor) and Venus-tagged Gα (acceptor) in HEK 293 cells, also in HEK 293 cells stably expressing FSHR (signal decreased there); cells in PBS, ~200,000 cells/well, coelenterazine h; basal BRET 1 min, then LH 100 nM for 1 min
[2] = target: LHR, BRET-tagged, as used for receptor-receptor BRET (Supplementary Fig. S5) (human) (UniProt P22888); test: FRET or BRET; constitutive receptor-receptor association; net BRET (basal ratio of the Rluc8-tagged receptor alone subtracted); shown in Supplementary Fig. S5

Molecule | binding [1] | binding [2]
Gαq-Venus (mVenus-tagged Gαq) (from UniProt P50148 1-359) | binds | 
Gαs mVenus-tagged construct (from UniProt P63092 1-394) | binds | 
B1 |  | binds
